Data reported in paper PMC13212363.
Results are given in words; binding and its absence hold for the method and conditions named. In cells and extracts the contact can be indirect. Binding calls can cover weak binding; strength is not graded here. Sequences can lack the tags named with a protein.

Molecular target: T1, NSF-tagged PPP2R2B (UniProt Q00005)
T1 sequence: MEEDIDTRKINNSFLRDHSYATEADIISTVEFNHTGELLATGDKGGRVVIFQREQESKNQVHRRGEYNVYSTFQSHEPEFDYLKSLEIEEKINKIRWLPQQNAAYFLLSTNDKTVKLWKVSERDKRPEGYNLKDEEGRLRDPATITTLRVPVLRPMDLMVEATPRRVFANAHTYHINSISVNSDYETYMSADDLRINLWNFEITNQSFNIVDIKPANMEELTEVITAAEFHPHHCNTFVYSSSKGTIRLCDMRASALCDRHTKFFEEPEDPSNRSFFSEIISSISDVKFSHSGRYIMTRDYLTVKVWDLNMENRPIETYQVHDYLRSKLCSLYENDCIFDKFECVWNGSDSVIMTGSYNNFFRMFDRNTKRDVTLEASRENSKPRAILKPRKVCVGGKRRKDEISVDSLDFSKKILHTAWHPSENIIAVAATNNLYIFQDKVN
Assay: pull-down; NSF-tagged B subunit co-expressed with myc-tagged PPP2CA constructs in HEK293; lysate (50 mM Tris-HCl 7.5, 150 mM NaCl, 1 mM EDTA, 2.5 mM EGTA, 1% NP-40) on streptavidin beads for 4 h, washed three times; western blot

binding: binds
Substance: endogenous catalytic PP2A subunit (human (endogenous in HEK293)) (enzyme)
